For some assays here: The comparison behind a weaker result is the experiment's own reference, which may not be listed here. For some assays here: Construct, isoform or probe ends are uncertain for at least one entry. For some assays here: At least one verdict was read from the data and is not stated in words by the source.
Assays:
Test in all cases: BLI
BRCA1 DBD1 T374I (human) = BRCA1 DBD1 T374I (human) (UniProt P38398); details: order of magnitude below WT, value not in material; residues 330-554
[1] = biological target: BRCA1 DBD2 M1008I (human) (UniProt P38398); details: 2-3 orders below WT, value not in material; residues 894-1057
[2] = biological target: BRCA1 DBD2 S1027N (human) (UniProt P38398); details: three orders below WT, value not in material; residues 894-1057
BRCA1 DBD1 R496H (human) = BRCA1 DBD1 R496H (human) (UniProt P38398); details: between ssDNA and G4, value not in material; residues 330-554
BRCA1 DBD1 N417S (human) = BRCA1 DBD1 N417S (human) (UniProt P38398); details: order of magnitude below WT, value not in material; residues 330-554
[3] = biological target: BRCA1 DBD2 R1028H (human) (UniProt P38398); details: 2-3 orders below WT, value not in material; residues 894-1057
BRCA1 DBD2 N909I (human) = BRCA1 DBD2 N909I (human) (UniProt P38398); details: 2-3 orders below WT, value not in material; residues 894-1057
[4] = biological target: BRCA1 DBD2 E1038G (human) (UniProt P38398); details: three orders below WT, value not in material; residues 894-1057

CCATGGCTCCTGAGCTAGCTGCAGTAGCCTAAAGGATGAAACTAGGATCTTATGCTCCAT (double strand) [Biods60R-Cy3 (blunt dsDNA)]
binding result (BRCA1 DBD1 T374I (human)): binds more weakly
binding result [1]: binds more weakly
binding result [2]: binds more weakly
binding result (BRCA1 DBD1 R496H (human)): binds

CCATGGCTCCTGAGCTAGCTGCAGTAGCCTAAAGGATGAAACTAGGATCTTATGCTCCAT [Bioss60R (ssDNA)]
binding result (BRCA1 DBD1 N417S (human)): binds more weakly

TTAGGGTTAGGGTTAGGGTTAGGG [BioG4Telo (G4 DNA)]
binding result [3]: binds more weakly
binding result (BRCA1 DBD2 N909I (human)): binds more weakly
binding result [4]: binds more weakly

Source: publication doi:10.1101/2025.07.10.664210
